The expression values are mRNA levels of the gene; the protein chain is shown to identify it.
System: Npc1-/- mouse liver
Assay: Liver gene expression microarray, Npc1-/- versus control mice (Affymetrix Mouse GeneChip 1.0 ST)
Conditions: negative = lower in Npc1−/−
[1] = head prints "weeks" (column between 7 weeks and 11 weeks)

Row | Substance | FC (fold-change of expression between Npc1−/− and control mice) (5 weeks of age) | FC (fold-change of expression between Npc1−/− and control mice) (7 weeks of age) | FC (fold-change of expression between Npc1−/− and control mice) (11 weeks of age) | FC (fold-change of expression between Npc1−/− and control mice) [1] | FC (fold-change of expression between Npc1−/− and control mice) (3 weeks of age) | FC (fold-change of expression between Npc1−/− and control mice) (1 week of age)
1 | Adm (YRQSMNQGSRSNGCRFGTCTFQKLAHQIYQLTDKDKDGMAPRNKISPQGY; UniProt P97297 95-144, looked up) | 1.40 | 1.56 | 2.39 | 1.52 | – | –
2 | Colla1 | 1.50 | 1.88 | – | 1.40 | 1.49 | –
3 | Colla2 | 1.39 | 1.59 | – | 1.45 | 1.40 | –
4 | Ctsb | 1.68 | 2.15 | 2.58 | 2.17 | 1.49 | –
5 | Ctsl | 1.62 | 1.42 | 2.43 | 2.02 | – | 1.33
6 | Defb1 (DQYKCLQHGGFCLRSSCPSNTKLQGTCKPDKPNCCKS; UniProt P56386 33-69, looked up) | 1.85 | 2.04 | 4.47 | 1.85 | 1.91 | –
7 | Igf1 | −1.43 | −1.65 | −1.92 | −1.45 | – | –
8 | Leap2 (MTPFWRGVSLRPIGASCRDDSECITRLCRKRRCSLSVAQE; UniProt Q91V13 37-76, looked up) | – | −1.59 | −3.14 | −1.36 | −2.06 | –
9 | Mbl1 | −1.54 | −1.59 | −2.85 | −1.52 | – | –
10 | Mmp2 | 1.32 | 1.51 | 1.57 | 1.34 | – | –
11 | Mmp12 | 13.58 | 23.91 | 19.18 | 26.27 | 7.13 | –
12 | Pdgfa | 1.30 | 1.89 | 1.39 | 1.48 | 1.32 | –
13 | Plau | 2.01 | 2.78 | 2.47 | 2.27 | 1.52 | –
14 | Plaur | 1.94 | 3.13 | 5.45 | 3.67 | 1.46 | –
15 | Sparcl1 | 1.53 | 2.24 | 2.82 | 2.15 | 1.63 | –
16 | Svep1 | 1.36 | 1.68 | 1.61 | 1.57 | 1.35 | –
17 | Tfrc | 1.69 | 2.12 | 3.41 | 2.06 | 1.53 | –
18 | Thbs1 | 1.42 | 1.67 | 1.73 | 1.69 | 1.43 | –
19 | Thbs2 | 1.34 | 1.42 | 1.63 | 1.55 | – | –

From patent US20140370521A1, “IDENTIFICATION OF TWO NOVEL BIOMARKERS FOR NIEMANN-PICK DISEASE TYPE C” (The USA , as Represented by the Secretary, Department of …, priority 2011, published 2014)
